Experimental data reported in the supplement of paper PMC10849652.
The list shows a part of the results. Residues, ends and D or L forms follow the SMILES beside them. *: point of attachment. Cbz = O=C(OCc1ccccc1)*

Chains of the proteins cited; added tags and fusions are not shown. Lines headed by an entry give the natural chain unless they say otherwise; changes in a name come on top.
UniProt Q9H6H4: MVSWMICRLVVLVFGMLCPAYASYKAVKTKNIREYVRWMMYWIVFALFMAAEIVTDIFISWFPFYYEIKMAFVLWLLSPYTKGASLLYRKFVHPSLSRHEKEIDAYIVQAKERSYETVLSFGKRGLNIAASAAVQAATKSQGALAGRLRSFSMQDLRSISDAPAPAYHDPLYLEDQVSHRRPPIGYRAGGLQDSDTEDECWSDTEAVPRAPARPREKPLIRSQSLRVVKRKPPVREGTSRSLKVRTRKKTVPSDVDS
UniProt P62877, whole entry, looked up: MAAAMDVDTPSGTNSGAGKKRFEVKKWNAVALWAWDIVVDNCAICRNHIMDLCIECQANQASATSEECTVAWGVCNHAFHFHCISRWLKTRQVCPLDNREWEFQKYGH
UniProt Q96D71: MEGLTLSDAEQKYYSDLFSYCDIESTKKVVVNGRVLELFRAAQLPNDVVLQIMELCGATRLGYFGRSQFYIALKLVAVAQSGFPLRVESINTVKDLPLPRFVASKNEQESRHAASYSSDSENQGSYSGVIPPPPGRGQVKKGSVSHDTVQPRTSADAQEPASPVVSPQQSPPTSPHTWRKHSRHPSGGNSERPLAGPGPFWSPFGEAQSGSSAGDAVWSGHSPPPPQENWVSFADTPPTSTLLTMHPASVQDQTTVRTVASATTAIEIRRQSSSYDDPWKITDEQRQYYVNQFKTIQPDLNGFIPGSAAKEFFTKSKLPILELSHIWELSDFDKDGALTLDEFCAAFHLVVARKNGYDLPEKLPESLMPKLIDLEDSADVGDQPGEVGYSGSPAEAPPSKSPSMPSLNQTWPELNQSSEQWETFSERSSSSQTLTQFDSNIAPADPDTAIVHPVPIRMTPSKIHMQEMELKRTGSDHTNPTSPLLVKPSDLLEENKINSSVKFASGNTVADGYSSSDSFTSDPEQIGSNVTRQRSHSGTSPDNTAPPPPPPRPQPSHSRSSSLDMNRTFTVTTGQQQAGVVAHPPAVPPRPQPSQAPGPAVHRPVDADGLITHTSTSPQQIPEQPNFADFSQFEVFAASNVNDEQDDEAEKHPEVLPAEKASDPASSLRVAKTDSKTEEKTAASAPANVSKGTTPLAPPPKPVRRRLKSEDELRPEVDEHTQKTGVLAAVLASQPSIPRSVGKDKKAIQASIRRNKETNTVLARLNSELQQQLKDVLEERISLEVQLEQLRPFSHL
UniProt Q9H920: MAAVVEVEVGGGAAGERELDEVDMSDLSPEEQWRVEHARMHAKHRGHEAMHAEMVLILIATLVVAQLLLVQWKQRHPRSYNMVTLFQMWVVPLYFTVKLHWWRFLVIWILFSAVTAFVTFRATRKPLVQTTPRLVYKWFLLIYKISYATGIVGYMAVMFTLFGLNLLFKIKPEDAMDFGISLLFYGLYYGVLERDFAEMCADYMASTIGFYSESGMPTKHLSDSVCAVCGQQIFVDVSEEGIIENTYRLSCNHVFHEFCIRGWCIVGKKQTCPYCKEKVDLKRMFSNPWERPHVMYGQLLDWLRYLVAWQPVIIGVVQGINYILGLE
UniProt Q9UBS8: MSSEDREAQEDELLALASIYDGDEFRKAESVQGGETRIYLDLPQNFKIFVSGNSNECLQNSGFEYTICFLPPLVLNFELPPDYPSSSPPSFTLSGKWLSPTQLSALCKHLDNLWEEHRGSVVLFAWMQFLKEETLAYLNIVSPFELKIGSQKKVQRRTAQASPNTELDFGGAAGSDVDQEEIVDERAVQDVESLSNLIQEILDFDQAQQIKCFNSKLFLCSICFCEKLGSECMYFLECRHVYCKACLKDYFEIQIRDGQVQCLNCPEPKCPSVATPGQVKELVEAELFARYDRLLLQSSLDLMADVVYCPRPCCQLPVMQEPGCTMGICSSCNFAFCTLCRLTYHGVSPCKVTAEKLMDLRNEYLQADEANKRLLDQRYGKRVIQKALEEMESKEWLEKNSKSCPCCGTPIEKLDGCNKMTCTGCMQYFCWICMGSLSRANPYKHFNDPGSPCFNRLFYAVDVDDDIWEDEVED
UniProt O75792: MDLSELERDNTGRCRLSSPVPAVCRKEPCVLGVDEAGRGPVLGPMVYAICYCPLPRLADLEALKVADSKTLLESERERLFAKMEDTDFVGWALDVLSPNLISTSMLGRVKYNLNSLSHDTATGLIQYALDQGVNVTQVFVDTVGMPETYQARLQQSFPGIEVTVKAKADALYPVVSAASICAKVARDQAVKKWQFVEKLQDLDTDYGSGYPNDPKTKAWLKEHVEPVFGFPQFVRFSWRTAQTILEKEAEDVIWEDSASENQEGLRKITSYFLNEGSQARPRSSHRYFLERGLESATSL
UniProt P78509: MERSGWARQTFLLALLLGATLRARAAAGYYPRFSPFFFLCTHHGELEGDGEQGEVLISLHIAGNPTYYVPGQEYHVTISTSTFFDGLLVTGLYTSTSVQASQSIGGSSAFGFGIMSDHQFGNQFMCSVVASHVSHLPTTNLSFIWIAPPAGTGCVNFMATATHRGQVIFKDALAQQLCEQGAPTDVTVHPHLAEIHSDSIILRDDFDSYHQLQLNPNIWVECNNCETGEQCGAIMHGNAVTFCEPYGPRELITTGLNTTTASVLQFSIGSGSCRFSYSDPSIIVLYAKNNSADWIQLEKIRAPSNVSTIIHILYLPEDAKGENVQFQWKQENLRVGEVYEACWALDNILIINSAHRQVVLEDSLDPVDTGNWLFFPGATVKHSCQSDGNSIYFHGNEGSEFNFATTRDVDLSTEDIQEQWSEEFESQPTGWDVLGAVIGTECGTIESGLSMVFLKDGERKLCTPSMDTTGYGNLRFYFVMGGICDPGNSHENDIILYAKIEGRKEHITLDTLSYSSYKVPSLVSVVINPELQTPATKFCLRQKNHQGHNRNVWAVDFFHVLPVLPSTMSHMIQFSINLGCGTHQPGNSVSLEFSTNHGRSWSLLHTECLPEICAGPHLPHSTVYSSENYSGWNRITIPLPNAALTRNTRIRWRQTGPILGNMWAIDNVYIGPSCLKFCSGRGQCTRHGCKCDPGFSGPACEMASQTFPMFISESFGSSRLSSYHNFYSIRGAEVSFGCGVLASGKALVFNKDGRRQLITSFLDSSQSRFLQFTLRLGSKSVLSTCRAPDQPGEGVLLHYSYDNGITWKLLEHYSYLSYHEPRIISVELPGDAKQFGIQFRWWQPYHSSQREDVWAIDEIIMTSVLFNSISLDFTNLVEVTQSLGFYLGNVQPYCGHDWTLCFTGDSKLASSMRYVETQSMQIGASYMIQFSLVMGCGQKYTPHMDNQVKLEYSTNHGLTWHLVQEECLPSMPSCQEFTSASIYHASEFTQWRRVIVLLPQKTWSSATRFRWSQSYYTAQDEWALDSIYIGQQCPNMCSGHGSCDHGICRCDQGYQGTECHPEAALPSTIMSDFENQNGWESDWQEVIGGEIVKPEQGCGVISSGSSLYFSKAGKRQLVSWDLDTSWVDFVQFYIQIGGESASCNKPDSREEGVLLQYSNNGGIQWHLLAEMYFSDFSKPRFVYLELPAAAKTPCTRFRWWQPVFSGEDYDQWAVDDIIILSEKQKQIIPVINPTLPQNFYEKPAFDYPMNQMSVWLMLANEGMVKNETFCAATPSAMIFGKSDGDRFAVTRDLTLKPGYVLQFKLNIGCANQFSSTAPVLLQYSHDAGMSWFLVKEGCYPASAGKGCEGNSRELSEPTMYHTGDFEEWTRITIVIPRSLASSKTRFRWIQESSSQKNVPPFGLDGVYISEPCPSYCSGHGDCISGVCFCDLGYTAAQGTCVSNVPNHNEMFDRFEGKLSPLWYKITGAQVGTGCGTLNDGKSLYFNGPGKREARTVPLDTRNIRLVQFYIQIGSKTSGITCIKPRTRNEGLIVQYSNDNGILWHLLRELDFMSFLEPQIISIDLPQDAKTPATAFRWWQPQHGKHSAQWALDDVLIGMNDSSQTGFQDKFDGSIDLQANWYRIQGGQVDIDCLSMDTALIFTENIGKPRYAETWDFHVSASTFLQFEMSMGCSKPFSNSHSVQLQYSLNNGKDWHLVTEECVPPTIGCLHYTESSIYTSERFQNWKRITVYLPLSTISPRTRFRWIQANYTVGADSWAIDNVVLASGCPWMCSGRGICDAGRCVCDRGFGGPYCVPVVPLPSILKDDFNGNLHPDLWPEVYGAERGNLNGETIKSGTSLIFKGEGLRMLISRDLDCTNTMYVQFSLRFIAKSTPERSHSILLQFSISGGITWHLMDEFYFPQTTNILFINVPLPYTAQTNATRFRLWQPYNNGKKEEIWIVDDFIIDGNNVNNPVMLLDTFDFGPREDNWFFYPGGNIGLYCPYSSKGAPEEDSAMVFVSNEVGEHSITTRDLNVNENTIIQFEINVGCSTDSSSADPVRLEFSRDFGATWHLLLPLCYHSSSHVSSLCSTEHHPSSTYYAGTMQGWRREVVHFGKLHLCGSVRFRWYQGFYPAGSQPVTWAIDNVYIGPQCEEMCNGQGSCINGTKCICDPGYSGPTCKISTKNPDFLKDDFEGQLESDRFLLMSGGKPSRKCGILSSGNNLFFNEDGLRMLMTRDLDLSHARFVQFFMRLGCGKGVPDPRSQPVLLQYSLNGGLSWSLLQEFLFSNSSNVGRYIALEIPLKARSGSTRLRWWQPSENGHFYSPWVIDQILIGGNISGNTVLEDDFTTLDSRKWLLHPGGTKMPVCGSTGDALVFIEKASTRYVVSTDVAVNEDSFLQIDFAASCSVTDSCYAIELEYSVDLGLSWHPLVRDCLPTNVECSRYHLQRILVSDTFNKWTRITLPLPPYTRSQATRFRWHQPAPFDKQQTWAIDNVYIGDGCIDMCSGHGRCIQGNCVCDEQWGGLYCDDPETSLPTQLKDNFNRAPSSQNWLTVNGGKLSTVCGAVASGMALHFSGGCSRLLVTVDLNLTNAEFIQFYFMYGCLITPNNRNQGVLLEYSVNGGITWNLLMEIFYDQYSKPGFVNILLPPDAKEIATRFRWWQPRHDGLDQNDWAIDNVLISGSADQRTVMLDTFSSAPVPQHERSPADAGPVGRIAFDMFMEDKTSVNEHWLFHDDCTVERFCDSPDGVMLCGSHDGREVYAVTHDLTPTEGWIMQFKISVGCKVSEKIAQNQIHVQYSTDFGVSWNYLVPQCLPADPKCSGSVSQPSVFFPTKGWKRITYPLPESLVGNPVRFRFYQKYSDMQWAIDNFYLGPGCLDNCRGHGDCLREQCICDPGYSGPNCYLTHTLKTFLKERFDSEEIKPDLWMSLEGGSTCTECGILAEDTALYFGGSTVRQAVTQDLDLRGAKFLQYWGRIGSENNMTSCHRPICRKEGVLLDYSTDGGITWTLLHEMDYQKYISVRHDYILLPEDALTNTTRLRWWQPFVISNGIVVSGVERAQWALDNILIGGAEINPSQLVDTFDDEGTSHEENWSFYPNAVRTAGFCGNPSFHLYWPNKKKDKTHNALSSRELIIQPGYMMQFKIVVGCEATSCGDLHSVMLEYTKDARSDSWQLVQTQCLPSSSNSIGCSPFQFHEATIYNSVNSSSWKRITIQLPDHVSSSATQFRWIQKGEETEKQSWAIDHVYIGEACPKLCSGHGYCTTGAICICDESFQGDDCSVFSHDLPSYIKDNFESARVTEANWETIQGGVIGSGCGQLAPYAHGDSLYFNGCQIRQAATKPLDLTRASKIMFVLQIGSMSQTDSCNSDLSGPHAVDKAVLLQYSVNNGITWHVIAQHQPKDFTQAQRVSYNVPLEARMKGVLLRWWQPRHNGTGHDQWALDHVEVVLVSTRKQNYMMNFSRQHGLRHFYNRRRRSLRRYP
UniProt P40938, whole entry, looked up: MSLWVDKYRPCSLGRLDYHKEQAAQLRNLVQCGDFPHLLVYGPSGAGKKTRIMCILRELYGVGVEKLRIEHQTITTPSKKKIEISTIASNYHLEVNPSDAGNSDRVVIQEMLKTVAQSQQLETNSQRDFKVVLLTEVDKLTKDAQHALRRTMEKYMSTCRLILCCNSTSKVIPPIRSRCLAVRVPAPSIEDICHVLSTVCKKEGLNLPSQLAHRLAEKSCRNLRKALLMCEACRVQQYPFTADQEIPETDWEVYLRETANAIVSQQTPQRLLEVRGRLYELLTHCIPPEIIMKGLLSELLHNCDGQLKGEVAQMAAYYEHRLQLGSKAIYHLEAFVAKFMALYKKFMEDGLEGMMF
UniProt Q5TBB1: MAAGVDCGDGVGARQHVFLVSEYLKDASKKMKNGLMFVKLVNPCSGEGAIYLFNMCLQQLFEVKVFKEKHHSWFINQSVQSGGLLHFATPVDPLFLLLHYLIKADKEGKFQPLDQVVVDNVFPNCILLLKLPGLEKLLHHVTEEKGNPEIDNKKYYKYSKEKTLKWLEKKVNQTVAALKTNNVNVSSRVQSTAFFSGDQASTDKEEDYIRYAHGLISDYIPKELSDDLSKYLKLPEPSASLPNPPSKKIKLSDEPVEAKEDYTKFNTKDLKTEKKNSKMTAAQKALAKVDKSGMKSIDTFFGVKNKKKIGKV

Tests used:
Experiment in all cases: log2 fold change, soluble protein after heating vs DMSO (PISA); higher = thermal stabilisation; K562 cells, 10 uM, 30 min; active = over 0.2 and 3.5 SD of the protein, either way, in both replicates (recomputed)
erlotinib = compound: C#Cc1cccc(Nc2ncnc3cc(OCCOC)c(OCCOC)cc23)c1 [erlotinib]
Procedure, shortened: (§1)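 Thermal stability values are relative to control samples and come from duplicates. They are expressed as log2 fold changes. For measurement, K562 cells (2×10^6 cells/mL) received 10 μM compound for 30 min, and aliquots were heated for 3 min over 48°C-58°C, pooled, and extracted at 4°C in PBS with 0.5% NP-40. Soluble protein, the supernatant after 21,000xg for 90 min, was quantified by TMTpro 16plex LC-MS/MS with equalised channel sums.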

[1] = compound: C/C(=N\NC(=O)C1=CC(=CC=C1)S(=O)(=O)N2CCOCC2)/C3=C(C=CC(=C3)Cl)O
Procedure, shortened: as §1

[2] = compound: C1=CC(=C(C=C1Cl)C2=NC3=NC=CN=C3C(=N2)NC4=CC=NC=C4)F
Procedure, shortened: as §1

[3] = compound: C1=CC(=CC=C1C2=NC3=C(N2)C=C(C=C3)C(=O)N)OC4=CC=C(C=C4)Cl
Procedure, shortened: as §1

[4] = compound: C1=CC2=C(C=CC(=C2)/C=C\3/C(=O)NC(=NCC4=CC=CS4)S3)N=C1
Procedure, shortened: as §1

[5] = compound: C1=CC2=NC=CN=C2C=C1/C=C/3\C(=O)NC(=O)S3
Procedure, shortened: as §1

[6] = compound: C1=CC=C(C=C1)C2=NC(=C(N2)C3=CC=NC=C3)C4=CC(=C(C=C4)Cl)O
Procedure, shortened: as §1

[7] = compound: C1=CC=C2C(=C1)C3=NNC4=CC=CC(=C43)C2=O
Procedure, shortened: as §1

[8] = compound: C1CCN(C1)C(=O)NC2=CC=CC(=C2)NC3=NC=C(C(=N3)NCCC4=CN=CN4)Br
Procedure, shortened: as §1

[9] = compound: C1CN(CCC1(CC2=CC=C(C=C2)Cl)N)C3=NC=NC4=C3C=CN4
Procedure, shortened: as §1

IRAK-1-4 Inhibitor I = compound: C1COCCN1CCN2C3=CC=CC=C3N=C2NC(=O)C4=CC(=CC=C4)[N+](=O)[O-] [IRAK-1-4 Inhibitor I]
Procedure, shortened: as §1

ibrutinib = compound: C=CC(=O)N1CCC[C@@H](n2nc(-c3ccc(Oc4ccccc4)cc3)c3c(N)ncnc32)C1 [ibrutinib]
Procedure, shortened: as §1

[10] = compound: CC(=O)c1cnc2ccc(-c3cc(Cl)c(O)c(Cl)c3)nc2c1N[C@H]1CC[C@H](CN(C)C)CC1
Procedure, shortened: as §1

ralimetinib = compound: CC(C)(C)Cn1c(N)nc2ccc(-c3[nH]c(C(C)(C)C)nc3-c3ccc(F)cc3)nc21 [ralimetinib]
Procedure, shortened: as §1

[11] = compound: CC(C)(O)CC(=O)NCCn1ccc2ncnc(Nc3ccc(Oc4cccc(C(F)(F)F)c4)c(Cl)c3)c21
Procedure, shortened: as §1

[12] = compound: CC(C)C1=C2N=C(C=C(N2N=C1)NCC3=CC=CC=C3)NCCCCCCN
Procedure, shortened: as §1

[13] = compound: CC(C)C[C@@H](C=O)NC(=O)[C@H](CC(C)C)NC(=O)[C@H](CC(C)C)NC(=O)OCc1ccccc1
Procedure, shortened: as §1

pinometostat = compound: CC(C)N(C[C@H]1O[C@@H](n2cnc3c(N)ncnc32)[C@H](O)[C@@H]1O)[C@H]1C[C@@H](CCc2nc3cc(C(C)(C)C)ccc3[nH]2)C1 [pinometostat]
Procedure, shortened: as §1

[14] = compound: CC1=C(C2=C(C=C1)C(=O)C3=CC=CC=C3N2CCCN)C
Procedure, shortened: as §1

[15] = compound: CC1=C(C(CC(=O)N1)C2=CC=C(C=C2)C(F)(F)F)C(=O)NC3=C(C=C4C(=C3)C=NN4)F
Procedure, shortened: as §1

Measured: log2 fold change

RHOXF2 (UniProt Q9BQY4)
inactive: erlotinib -0.067 | [1] -0.137 | [2] -0.002 | [3] 0.003 | [4] -0.06 | [5] 0.054 | [6] 0.06 | [7] -0.026 | [8] 0.036 | [9] 0.011 | IRAK-1-4 Inhibitor I 0.012 | ibrutinib 0.003 | [10] 0.002 | ralimetinib 0.051 | [11] -0.031 | [12] -0.03 | [13] 0.027 | pinometostat -0.037 | [14] -0.007

REEP4 (UniProt Q9H6H4)
inactive: erlotinib -0.024 | [1] 0.027 | [2] -0.049 | [3] 0.026 | [4] -0.018 | [5] 0.005 | [6] 0.063 | [7] -0.04 | [8] 0.047 | [9] -0.081 | IRAK-1-4 Inhibitor I 0.005 | ibrutinib -0.003 | [10] -0.198 | ralimetinib 0.164 | [11] -0.049 | [12] -0.157 | [13] 0.041 | pinometostat 0.13 | [14] 0.036

RCN1 (UniProt Q15293)
inactive: erlotinib -0.008 | [1] 0.025 | [2] 0 | [3] -0.009 | [4] -0.018 | [5] 0.046 | [6] -0.047 | [7] -0.037 | [8] 0.015 | [9] 0.017 | IRAK-1-4 Inhibitor I 0.032 | ibrutinib 0.002 | [10] 0.023 | ralimetinib -0.045 | [11] 0.038 | [12] 0.01 | [13] -0.017 | pinometostat -0.032 | [15] 0.046 | [14] -0.034

RCC1L (UniProt Q96I51)
inactive: erlotinib 0.011 | [1] 0.038 | [2] 0.016 | [3] 0.014 | [4] 0.047 | [5] 0.046 | [6] 0.044 | [7] -0.009 | [8] 0.027 | [9] 0.034 | IRAK-1-4 Inhibitor I -0.008 | ibrutinib 0.016 | [10] -0.006 | ralimetinib 0.049 | [11] 0.006 | [12] 0.039 | [13] -0.039 | pinometostat -0.069 | [15] -0.002 | [14] 0.042

RBX1 (UniProt P62877)
inactive: erlotinib -0.005 | [1] 0.002 | [2] 0.08 | [3] -0.145 | [4] 0.048 | [5] 0.089 | [6] -0.095 | [7] -0.03 | [8] 0.014 | [9] 0.137 | IRAK-1-4 Inhibitor I -0.048 | ibrutinib 0.023 | [10] -0.044 | ralimetinib -0.039 | [11] -0.07 | [12] 0.071 | [13] -0.076 | pinometostat 0.015 | [15] 0.022 | [14] 0.132

REPS1 (UniProt Q96D71)
inactive: erlotinib -0.16 | [1] 0.089 | [2] -0.111 | [3] 0.002 | [4] 0.299 | [5] 0.078 | [6] -0.048 | [7] 0.059 | [8] 0.136 | [9] -0.155 | IRAK-1-4 Inhibitor I 0.011 | ibrutinib 0.045 | [10] -0.117 | ralimetinib 0.154 | [11] -0.009 | [12] -0.083 | [13] 0.082 | pinometostat 0.221 | [15] -0.063 | [14] 0.001

Two neighbouring records from above, for reference:
RHOXF2 (UniProt Q9BQY4)
inactive: erlotinib -0.067 | [1] -0.137 | [2] -0.002 | [3] 0.003 | [4] -0.06 | [5] 0.054 | [6] 0.06 | [7] -0.026 | [8] 0.036 | [9] 0.011 | IRAK-1-4 Inhibitor I 0.012 | ibrutinib 0.003 | [10] 0.002 | ralimetinib 0.051 | [11] -0.031 | [12] -0.03 | [13] 0.027 | pinometostat -0.037 | [14] -0.007

REEP4 (UniProt Q9H6H4)
inactive: erlotinib -0.024 | [1] 0.027 | [2] -0.049 | [3] 0.026 | [4] -0.018 | [5] 0.005 | [6] 0.063 | [7] -0.04 | [8] 0.047 | [9] -0.081 | IRAK-1-4 Inhibitor I 0.005 | ibrutinib -0.003 | [10] -0.198 | ralimetinib 0.164 | [11] -0.049 | [12] -0.157 | [13] 0.041 | pinometostat 0.13 | [14] 0.036

More entries follow:

RNF121 (UniProt Q9H920)
inactive: erlotinib -0.01 | [1] 0.053 | [2] -0.011 | [3] 0.042 | [4] 0.005 | [5] 0.056 | [6] 0.067 | [7] -0.046 | [8] -0.053 | [9] 0.139 | IRAK-1-4 Inhibitor I 0.137 | ibrutinib -0.031 | [10] 0.035 | ralimetinib -0.01 | [11] 0.126 | [12] -0.071 | [13] 0.07 | pinometostat -0.114 | [15] 0.122 | [14] 0.01

RNF14 (UniProt Q9UBS8)
inactive: erlotinib -0.006 | [1] 0.038 | [2] 0.048 | [3] 0.043 | [4] 0.015 | [5] -0.019 | [6] 0.014 | [7] -0.029 | [8] 0.002 | [9] 0.071 | IRAK-1-4 Inhibitor I 0.019 | ibrutinib 0.006 | [10] 0.011 | ralimetinib -0.008 | [11] -0.035 | [12] -0.039 | [13] 0.014 | pinometostat -0.075 | [14] -0.05

RNASEH2A (UniProt O75792)
inactive: erlotinib 0.041 | [1] 0.085 | [2] -0.062 | [3] 0.019 | [4] 0.119 | [5] -0.038 | [6] -0.026 | [7] 0.065 | [8] -0.016 | [9] -0.115 | IRAK-1-4 Inhibitor I 0 | ibrutinib 0.008 | [10] -0.07 | ralimetinib -0.08 | [11] -0.029 | [12] -0.122 | [13] 0.074 | pinometostat -0.003 | [14] 0.042

RELN (UniProt P78509)
inactive: erlotinib -0.054 | [1] -0.097 | [2] -0.021 | [3] 0.088 | [4] 0.104 | [5] -0.06 | [6] -0.01 | [7] -0.024 | [8] -0.016 | [9] 0.08 | IRAK-1-4 Inhibitor I -0.096 | ibrutinib 0.062 | [10] -0.038 | ralimetinib 0.059 | [11] 0.005 | [12] -0.027 | [13] 0.006 | pinometostat 0.016 | [15] -0.063 | [14] -0.062

RHEB (UniProt Q15382)
inactive: erlotinib 0.028 | [1] 0.042 | [2] 0.075 | [3] -0.041 | [4] 0.008 | [5] 0.008 | [6] -0.008 | [7] -0.004 | [8] -0.005 | [9] 0.041 | IRAK-1-4 Inhibitor I 0.006 | ibrutinib -0.016 | [10] -0.04 | ralimetinib -0.112 | [11] -0.01 | [12] 0.027 | [13] -0.055 | pinometostat -0.035 | [14] 0.093

RNASET2 (UniProt O00584)
inactive: erlotinib 0.027 | [1] -0.007 | [2] -0.006 | [3] 0.002 | [4] 0.012 | [5] -0.014 | [6] -0.001 | [7] -0.027 | [8] 0.034 | [9] 0.052 | IRAK-1-4 Inhibitor I 0.028 | ibrutinib 0.042 | [10] 0 | ralimetinib -0.082 | [11] 0.029 | [12] -0.206 | [13] -0.004 | pinometostat -0.014 | [14] -0.061

RFC3 (UniProt P40938)
inactive: erlotinib -0.04 | [1] 0.108 | [2] 0.033 | [3] 0.005 | [4] 0.066 | [5] 0.007 | [6] 0.046 | [7] 0.046 | [8] -0.06 | [9] 0.054 | IRAK-1-4 Inhibitor I 0.003 | ibrutinib 0.025 | [10] -0.101 | ralimetinib 0.021 | [11] -0.087 | [12] -0.012 | [13] -0.047 | pinometostat -0.057 | [14] 0.09

RBPJ (UniProt Q06330)
inactive: erlotinib -0.022 | [1] 0.005 | [2] 0.04 | [3] 0.042 | [4] -0.006 | [5] 0.025 | [6] -0.028 | [7] -0.025 | [8] 0.02 | [9] 0.063 | IRAK-1-4 Inhibitor I -0.012 | ibrutinib 0.001 | [10] 0.051 | ralimetinib -0.028 | [11] -0.011 | [12] 0.088 | [13] 0.05 | pinometostat -0.061 | [15] 0.008 | [14] -0.176

RNASEH2B (UniProt Q5TBB1)
inactive: erlotinib 0.15 | [1] 0.094 | [2] 0.087 | [3] -0.044 | [4] 0.126 | [5] -0.008 | [6] 0.099 | [7] 0.053 | [8] -0.041 | [9] -0.024 | IRAK-1-4 Inhibitor I -0.027 | ibrutinib -0.039 | [10] -0.196 | ralimetinib -0.013 | [11] -0.217 | [12] -0.248 | [13] -0.034 | pinometostat -0.015 | [15] -0.075 | [14] 0.163
